# Results: patent US7018802B2, “Electrochemiluminescent enzyme immunoassay” (BioVeris Corporation, priority 1995, dated 2006)
# Key:
# [1] = ECL assay before and after NaOH (base) hydrolysis; type: physicochemical; conditions: 50 mM NaOH
# [2] = ECL lower limit of detection of β-lactam hydrolysis; conditions: for average instrument reading, unhydrolyzed substance / instrument reading, hydrolyzed substance: at the lower limit of detection, 50 nM
# [3] = ECL change on Ru-APA hydrolysis compared to 6-APA standard curve
# [4] = 23.0 μM, 6-APA in equimolar mixture with Ru(bpy)3^+2 (nonconjugated), FIG. 11
# [5] = 30 minute, 30 μM, ampicillin in equimolar mixture with Ru(bpy)3^+2 (nonconjugated), FIG. 8
# [6] = FIG. 10 / FIG. 12, ampicillin unconjugated
Molecule,"ECL increase upon base hydrolysis [1, 4]","ECL increase upon base hydrolysis [1, 5]","lower limit of detection of hydrolysis by ECL [2, 6]","lower limit of detection of hydrolysis by ECL ([2]; unconjugated, in the presence of 10 μM Ru(bpy)3^+2)","average instrument reading, unhydrolyzed substance [2]","instrument reading, hydrolyzed substance [2]","increase in the ECL change during hydrolysis through conjugation, versus nonconjugated 6-APA ([3]; 10 μM Ru-APA versus 6-APA plus 10 μM Ru(bpy)3^+2)","concentration of free 6-APA (nonconjugated) whose hydrolysis gives the equivalent ECL change ([3]; 10 μM Ru-APA, 6-APA in the presence of 10 μM Ru(bpy)3^+2, extrapolation of standard curve, FIG. 13)"
"CC1(C)S[C@@H]2[C@H](N)C(=O)N2[C@H]1C(=O)O [6-APA, 6-aminopenicillanic acid, reference compound]",1.9 fold,–,–,–,–,–,–,–
"CC1(C)S[C@@H]2[C@H](NC(=O)[C@H](N)c3ccccc3)C(=O)N2[C@H]1C(=O)O [ampicillin, reference compound]",–,1.5 fold,5000 nM,50000 nM,–,–,–,–
Ru(bpy)3^+2-labeled 6-aminopenicillanic acid [Ru-APA],13.2 fold,–,50 nM,–,−648 relative ECL counts,−33 relative ECL counts,125 fold,1250 µM
Ru(bpy)3^+2-labeled ampicillin [Ru-AMP],–,5.2 fold,50 nM,–,−152 relative ECL counts,464 relative ECL counts,–,–
